Results from the supplement of paper PMC6411743.
± gives the standard deviation of the averaged measurements. The list shows a part of the results.

The chains behind the UniProt entries cited, without tags or fusion partners. Where a name states a change or a piece, a line headed by the entry shows the natural chain unless it says otherwise.
UniProt Q99828: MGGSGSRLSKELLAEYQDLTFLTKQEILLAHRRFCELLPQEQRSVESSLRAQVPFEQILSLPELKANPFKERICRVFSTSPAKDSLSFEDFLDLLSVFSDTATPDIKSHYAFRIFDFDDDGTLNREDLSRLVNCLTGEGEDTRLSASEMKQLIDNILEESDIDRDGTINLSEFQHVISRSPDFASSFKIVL
UniProt Q96MG7: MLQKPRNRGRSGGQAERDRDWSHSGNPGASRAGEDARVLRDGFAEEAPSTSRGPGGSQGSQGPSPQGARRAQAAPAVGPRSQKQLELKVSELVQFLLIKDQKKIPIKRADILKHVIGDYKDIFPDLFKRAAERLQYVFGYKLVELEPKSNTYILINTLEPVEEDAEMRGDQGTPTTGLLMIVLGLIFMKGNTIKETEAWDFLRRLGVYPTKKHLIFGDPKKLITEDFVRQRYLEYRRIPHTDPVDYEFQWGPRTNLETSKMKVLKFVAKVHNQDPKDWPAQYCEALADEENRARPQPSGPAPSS
UniProt Q99447: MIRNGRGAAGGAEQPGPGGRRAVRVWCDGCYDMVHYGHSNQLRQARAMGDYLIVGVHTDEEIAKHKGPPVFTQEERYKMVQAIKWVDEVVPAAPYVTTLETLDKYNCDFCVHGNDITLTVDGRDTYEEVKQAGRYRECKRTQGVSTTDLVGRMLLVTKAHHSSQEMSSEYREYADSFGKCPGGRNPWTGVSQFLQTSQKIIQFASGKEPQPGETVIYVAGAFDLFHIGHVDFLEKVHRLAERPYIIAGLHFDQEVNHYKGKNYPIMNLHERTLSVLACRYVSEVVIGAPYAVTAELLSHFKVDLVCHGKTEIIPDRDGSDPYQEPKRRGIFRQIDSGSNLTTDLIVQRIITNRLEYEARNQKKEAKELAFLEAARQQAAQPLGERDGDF
UniProt Q9BV20: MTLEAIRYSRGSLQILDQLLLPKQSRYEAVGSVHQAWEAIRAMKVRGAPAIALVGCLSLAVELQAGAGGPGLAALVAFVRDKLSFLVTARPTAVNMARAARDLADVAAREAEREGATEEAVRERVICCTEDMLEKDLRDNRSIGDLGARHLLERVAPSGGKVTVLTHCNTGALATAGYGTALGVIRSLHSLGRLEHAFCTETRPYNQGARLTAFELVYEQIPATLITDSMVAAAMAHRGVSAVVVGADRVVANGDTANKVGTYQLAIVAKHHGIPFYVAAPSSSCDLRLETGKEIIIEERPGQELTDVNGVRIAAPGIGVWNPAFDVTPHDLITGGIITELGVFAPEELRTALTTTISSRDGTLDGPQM
UniProt Q99570, whole entry: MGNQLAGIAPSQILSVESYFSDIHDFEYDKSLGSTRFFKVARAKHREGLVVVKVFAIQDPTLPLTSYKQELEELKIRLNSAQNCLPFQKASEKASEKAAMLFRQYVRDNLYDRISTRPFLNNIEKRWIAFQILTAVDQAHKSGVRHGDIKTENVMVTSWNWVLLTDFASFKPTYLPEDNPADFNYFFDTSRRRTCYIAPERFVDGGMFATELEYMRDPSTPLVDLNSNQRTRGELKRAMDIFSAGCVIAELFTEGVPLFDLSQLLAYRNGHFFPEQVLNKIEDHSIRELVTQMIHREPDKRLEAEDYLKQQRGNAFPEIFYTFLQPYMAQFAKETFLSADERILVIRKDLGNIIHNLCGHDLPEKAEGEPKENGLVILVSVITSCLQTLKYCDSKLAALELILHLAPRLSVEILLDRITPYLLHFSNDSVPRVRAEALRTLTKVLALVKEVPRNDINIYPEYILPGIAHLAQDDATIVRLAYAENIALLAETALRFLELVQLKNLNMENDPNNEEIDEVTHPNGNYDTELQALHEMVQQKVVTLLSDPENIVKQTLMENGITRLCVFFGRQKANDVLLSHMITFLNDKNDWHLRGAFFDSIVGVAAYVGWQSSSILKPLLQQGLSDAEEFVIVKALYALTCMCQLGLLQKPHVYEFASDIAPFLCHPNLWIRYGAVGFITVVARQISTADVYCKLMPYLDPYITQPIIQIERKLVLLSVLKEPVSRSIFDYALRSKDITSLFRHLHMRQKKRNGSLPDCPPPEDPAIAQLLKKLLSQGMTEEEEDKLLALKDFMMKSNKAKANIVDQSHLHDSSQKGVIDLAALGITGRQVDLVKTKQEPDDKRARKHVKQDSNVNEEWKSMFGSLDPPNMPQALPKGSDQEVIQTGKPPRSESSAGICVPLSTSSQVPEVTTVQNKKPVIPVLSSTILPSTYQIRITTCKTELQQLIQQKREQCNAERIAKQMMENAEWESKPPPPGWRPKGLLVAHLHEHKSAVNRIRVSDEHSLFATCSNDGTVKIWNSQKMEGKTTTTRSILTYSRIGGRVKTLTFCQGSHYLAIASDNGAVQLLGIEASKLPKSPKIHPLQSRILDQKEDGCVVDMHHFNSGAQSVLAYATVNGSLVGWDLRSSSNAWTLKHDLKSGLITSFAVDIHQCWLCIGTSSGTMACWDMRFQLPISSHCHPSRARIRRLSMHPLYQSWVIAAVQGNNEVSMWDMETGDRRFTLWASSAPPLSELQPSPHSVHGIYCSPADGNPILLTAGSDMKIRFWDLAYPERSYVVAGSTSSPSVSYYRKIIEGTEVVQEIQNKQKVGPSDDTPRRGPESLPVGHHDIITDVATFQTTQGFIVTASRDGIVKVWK
UniProt Q9BUE6: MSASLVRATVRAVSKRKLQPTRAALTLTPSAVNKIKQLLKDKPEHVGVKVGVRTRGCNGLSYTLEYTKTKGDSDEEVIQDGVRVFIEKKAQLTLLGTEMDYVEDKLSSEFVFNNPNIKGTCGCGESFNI
UniProt Q9BSD7: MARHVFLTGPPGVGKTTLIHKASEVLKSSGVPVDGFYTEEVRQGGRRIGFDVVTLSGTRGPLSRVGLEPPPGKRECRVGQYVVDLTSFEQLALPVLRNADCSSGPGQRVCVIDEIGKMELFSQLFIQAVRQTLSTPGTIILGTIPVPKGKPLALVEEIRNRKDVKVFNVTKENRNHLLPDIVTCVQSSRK
UniProt Q99459: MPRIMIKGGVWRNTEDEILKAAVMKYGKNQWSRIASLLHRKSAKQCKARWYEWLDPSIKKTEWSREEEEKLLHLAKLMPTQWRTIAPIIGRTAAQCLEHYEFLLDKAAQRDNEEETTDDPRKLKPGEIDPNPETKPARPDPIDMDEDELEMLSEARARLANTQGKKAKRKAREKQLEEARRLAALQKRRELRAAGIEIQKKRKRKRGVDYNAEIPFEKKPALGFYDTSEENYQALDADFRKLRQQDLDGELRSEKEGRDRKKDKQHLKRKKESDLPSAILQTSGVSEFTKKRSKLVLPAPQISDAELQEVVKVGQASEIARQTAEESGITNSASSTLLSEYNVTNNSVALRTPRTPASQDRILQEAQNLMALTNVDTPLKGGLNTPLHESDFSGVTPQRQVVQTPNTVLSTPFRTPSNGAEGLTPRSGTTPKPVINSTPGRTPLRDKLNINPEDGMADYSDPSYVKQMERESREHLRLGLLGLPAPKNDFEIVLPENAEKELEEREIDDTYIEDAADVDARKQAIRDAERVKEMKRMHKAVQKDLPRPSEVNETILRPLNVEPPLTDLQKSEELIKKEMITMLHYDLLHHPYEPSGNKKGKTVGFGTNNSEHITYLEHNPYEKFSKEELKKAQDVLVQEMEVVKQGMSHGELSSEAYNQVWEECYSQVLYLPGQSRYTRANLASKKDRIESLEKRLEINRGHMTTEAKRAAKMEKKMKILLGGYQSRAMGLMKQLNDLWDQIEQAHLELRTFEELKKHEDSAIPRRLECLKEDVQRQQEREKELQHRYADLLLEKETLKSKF
UniProt Q9BVC6: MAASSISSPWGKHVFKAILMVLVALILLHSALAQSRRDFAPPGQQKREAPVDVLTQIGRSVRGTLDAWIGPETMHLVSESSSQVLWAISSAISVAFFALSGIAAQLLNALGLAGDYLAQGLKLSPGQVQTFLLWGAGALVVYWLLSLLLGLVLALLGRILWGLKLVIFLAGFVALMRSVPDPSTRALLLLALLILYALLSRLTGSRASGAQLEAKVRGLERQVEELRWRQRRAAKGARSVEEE
UniProt Q99575: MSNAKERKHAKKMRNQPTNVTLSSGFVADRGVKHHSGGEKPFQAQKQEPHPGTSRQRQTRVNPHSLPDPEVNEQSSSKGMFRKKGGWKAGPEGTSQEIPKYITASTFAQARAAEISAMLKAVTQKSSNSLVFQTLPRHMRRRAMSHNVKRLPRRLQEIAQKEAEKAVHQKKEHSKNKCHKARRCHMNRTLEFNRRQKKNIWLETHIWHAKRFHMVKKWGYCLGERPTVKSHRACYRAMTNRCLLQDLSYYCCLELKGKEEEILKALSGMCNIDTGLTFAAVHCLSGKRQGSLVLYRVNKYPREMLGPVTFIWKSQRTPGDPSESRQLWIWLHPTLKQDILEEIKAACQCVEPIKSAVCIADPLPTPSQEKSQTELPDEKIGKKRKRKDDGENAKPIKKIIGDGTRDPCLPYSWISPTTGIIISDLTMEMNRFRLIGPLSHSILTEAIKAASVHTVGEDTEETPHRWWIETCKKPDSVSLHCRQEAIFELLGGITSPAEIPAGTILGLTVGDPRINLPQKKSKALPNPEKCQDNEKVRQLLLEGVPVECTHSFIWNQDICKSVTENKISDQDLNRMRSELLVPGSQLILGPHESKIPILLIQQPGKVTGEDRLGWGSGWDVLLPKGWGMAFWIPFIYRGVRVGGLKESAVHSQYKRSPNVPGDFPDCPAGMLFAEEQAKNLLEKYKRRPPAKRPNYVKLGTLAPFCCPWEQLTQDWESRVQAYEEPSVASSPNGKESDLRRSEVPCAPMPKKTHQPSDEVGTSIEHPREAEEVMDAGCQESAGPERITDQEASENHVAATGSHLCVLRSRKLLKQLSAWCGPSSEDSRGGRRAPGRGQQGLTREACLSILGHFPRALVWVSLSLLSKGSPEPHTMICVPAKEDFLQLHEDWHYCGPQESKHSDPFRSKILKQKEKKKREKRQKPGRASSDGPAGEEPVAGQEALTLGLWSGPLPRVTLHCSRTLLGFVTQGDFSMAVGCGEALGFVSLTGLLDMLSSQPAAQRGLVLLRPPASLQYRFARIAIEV
UniProt Q96RP9: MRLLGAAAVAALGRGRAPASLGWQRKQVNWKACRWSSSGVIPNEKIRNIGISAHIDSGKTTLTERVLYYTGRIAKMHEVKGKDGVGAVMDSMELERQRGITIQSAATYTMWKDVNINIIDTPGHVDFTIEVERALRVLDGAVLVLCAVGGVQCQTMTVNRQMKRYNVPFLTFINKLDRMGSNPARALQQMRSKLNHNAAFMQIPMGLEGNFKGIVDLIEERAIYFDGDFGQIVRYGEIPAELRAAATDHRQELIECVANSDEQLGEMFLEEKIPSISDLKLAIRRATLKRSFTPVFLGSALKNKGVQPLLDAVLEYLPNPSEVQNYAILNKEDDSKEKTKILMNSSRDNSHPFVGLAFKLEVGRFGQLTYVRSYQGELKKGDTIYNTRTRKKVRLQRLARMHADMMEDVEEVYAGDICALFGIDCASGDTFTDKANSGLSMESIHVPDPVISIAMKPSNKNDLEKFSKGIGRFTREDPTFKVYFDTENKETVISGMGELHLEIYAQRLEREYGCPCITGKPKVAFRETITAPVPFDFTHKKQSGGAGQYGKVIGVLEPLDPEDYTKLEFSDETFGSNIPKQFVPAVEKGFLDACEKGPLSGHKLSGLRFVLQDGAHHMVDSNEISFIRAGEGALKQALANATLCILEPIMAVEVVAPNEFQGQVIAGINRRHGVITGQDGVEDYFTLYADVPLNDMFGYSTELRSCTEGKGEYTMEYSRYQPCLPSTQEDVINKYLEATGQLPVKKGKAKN
UniProt Q9BXB4: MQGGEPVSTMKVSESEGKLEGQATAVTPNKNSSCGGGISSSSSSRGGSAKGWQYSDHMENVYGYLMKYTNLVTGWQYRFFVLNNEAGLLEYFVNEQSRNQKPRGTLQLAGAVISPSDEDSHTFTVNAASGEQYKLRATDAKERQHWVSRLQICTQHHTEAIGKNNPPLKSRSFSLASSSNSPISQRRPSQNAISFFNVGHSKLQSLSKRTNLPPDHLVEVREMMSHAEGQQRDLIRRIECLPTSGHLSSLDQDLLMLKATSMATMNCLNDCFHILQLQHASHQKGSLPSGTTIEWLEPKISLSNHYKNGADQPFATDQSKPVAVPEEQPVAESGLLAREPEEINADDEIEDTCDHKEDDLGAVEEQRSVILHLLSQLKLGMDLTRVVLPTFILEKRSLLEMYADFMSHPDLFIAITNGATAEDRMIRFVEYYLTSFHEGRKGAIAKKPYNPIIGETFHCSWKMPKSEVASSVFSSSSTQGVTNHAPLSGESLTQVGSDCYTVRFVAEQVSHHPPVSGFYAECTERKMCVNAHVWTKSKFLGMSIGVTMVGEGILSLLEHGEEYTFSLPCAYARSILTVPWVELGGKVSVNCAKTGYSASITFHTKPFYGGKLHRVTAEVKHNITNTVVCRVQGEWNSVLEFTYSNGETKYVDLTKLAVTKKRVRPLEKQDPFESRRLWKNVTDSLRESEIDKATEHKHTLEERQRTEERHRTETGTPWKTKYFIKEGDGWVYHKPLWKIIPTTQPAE

Compound: Nc1nc2c(ncn2[C@@H]2O[C@H](COP(=O)(O)OP(=O)(O)OP(=O)(O)O)[C@@H](O)[C@H]2O)c(=O)[nH]1 [guanosine triphosphate]
Assay: NP40-soluble protein abundance relative to vehicle (solubility fold change) (ratio); higher = more soluble protein in presence of GTP
Summary of the method: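 Values are fold changes against the detergent-processed vehicle, based on vsn-normalised intensities. Jurkat crude lysate was treated at eight concentrations from 0.1 to 10 mM (10 min at room temperature, then 3 min at 37 °C), solubilised with 0.8% NP40 and benzonase, ultracentrifuged and analysed by TMT-labelled LC-MS/MS over three independent experiments.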

| Target | NP40-soluble protein abundance (concentration: 0.1mM) | NP40-soluble protein abundance (concentration: 0.5mM) | NP40-soluble protein abundance (concentration: 1mM) | NP40-soluble protein abundance (concentration: 2mM) | NP40-soluble protein abundance (concentration: 4mM) | NP40-soluble protein abundance (concentration: 6mM) | NP40-soluble protein abundance (concentration: 8mM) | NP40-soluble protein abundance (concentration: 10mM) |
| --- | --- | --- | --- | --- | --- | --- | --- | --- |
| UniProt Q99828 and related entries | 0.956 ± 0.08 | 0.981 ± 0.11 | 1.02 ± 0.081 | 1.02 ± 0.084 | 1.02 ± 0.092 | 1 ± 0.12 | 0.996 ± 0.11 | 0.911 ± 0.12 |
| UniProt Q96SN8 and related entries | 1.02 ± 0.076 | 1.07 ± 0.051 | 1.1 ± 0.097 | 1.1 ± 0.035 | 1.18 ± 0.044 | 1.17 ± 0.04 | 1.2 ± 0.12 | 1.13 ± 0.08 |
| DDX23 (UniProt Q9BUQ8) | 1.04 ± 0.036 | 1.09 ± 0.067 | 1.19 ± 0.12 | 1.27 ± 0.075 | 1.55 ± 0.18 | 1.62 ± 0.19 | 1.89 ± 0.28 | 1.93 ± 0.23 |
| ZFR (UniProt Q96KR1) | 1.09 ± 0.066 | 1.09 ± 0.044 | 1.18 ± 0.13 | 1.18 ± 0.11 | 1.22 ± 0.11 | 1.23 ± 0.14 | 1.27 ± 0.18 | 1.23 ± 0.15 |
| UniProt Q96MG7 | 0.98 ± 0.11 | 0.958 ± 0.048 | 1.12 ± 0.089 | 1.13 ± 0.053 | 1.11 ± 0.12 | 1.1 ± 0.05 | 1.08 ± 0.13 | 1.17 ± 0.21 |
| UniProt Q99447 and related entries | 0.998 ± 0.022 | 1 ± 0.017 | 0.954 ± 0.045 | 0.939 ± 0.02 | 0.917 ± 0.047 | 0.909 ± 0.029 | 0.899 ± 0.057 | 0.857 ± 0.082 |
| MRI1 (UniProt Q9BV20) | 1.08 ± 0.096 | 1.07 ± 0.09 | 1.09 ± 0.14 | 1.02 ± 0.1 | 0.976 ± 0.12 | 1.06 ± 0.14 | 1.04 ± 0.12 | 1.01 ± 0.066 |
| PIK3R4 (UniProt Q99570) | 1.06 ± 0.045 | 0.982 ± 0.028 | 0.988 ± 0.027 | 0.993 ± 0.022 | 0.983 ± 0.018 | 0.966 ± 0.035 | 0.937 ± 0.038 | 0.904 ± 0.023 |
| UniProt Q96S66 and related entries | 0.976 ± 0.045 | 1.01 ± 0.12 | 0.961 ± 0.025 | 0.943 ± 0.087 | 0.934 ± 0.091 | 0.978 ± 0.043 | 0.994 ± 0.071 | 1.01 ± 0.093 |
| UniProt Q9BUE6 and related entries | 0.951 ± 0.078 | 0.999 ± 0.051 | 0.97 ± 0.059 | 1.01 ± 0.025 | 0.949 ± 0.059 | 0.974 ± 0.046 | 0.917 ± 0.056 | 0.983 ± 0.027 |
| UniProt Q96TC7 | 1.02 ± 0.032 | 0.977 ± 0.03 | 1.1 ± 0.028 | 1.07 ± 0.08 | 1.04 ± 0.047 | 1.08 ± 0.1 | 1.07 ± 0.11 | 1.03 ± 0.09 |
| UniProt Q9BSD7 | 1.02 ± 0.055 | 1.01 ± 0.024 | 0.99 ± 0.023 | 0.962 ± 0.035 | 0.985 ± 0.074 | 0.974 ± 0.062 | 0.966 ± 0.032 | 0.9308 ± 0.0056 |
| GTPBP4 (UniProt Q9BZE4) | 1.08 ± 0.03 | 1.05 ± 0.048 | 1.06 ± 0.017 | 1.13 ± 0.033 | 1.17 ± 0.033 | 1.2 ± 0.043 | 1.15 ± 0.043 | 1.17 ± 0.055 |
| CDC5L (UniProt Q99459) | 0.972 ± 0.041 | 0.992 ± 0.046 | 1.02 ± 0.025 | 1.03 ± 0.052 | 1.06 ± 0.041 | 1.13 ± 0.046 | 1.16 ± 0.083 | 1.19 ± 0.09 |
| UniProt Q96RU2-2 | 1.04 ± 0.12 | 0.994 ± 0.2 | 1.08 ± 0.15 | 1.05 ± 0.14 | 1.13 ± 0.2 | 1.06 ± 0.17 | 1.21 ± 0.16 | 1.14 ± 0.16 |
| TMEM109 (UniProt Q9BVC6) | 0.87 ± 0.032 | 0.882 ± 0.041 | 0.922 ± 0.043 | 0.9 ± 0.015 | 0.9002 ± 0.0038 | 0.91 ± 0.0094 | 0.873 ± 0.07 | 0.907 ± 0.012 |
| POP1 (UniProt Q99575) | 1.08 ± 0.033 | 1.09 ± 0.063 | 1.05 ± 0.044 | 1.1 ± 0.061 | 1.08 ± 0.1 | 1.13 ± 0.13 | 1.15 ± 0.087 | 1.12 ± 0.072 |
| CNPY3 (UniProt Q9BT09) | 0.85 ± 0.044 | 0.83 ± 0.079 | 0.886 ± 0.052 | 0.846 ± 0.064 | 0.823 ± 0.07 | 0.861 ± 0.089 | 0.838 ± 0.073 | 0.866 ± 0.076 |
| HIRIP3 (UniProt Q9BW71) | 0.932 ± 0.071 | 0.925 ± 0.089 | 1.01 ± 0.1 | 0.983 ± 0.15 | 1.04 ± 0.14 | 1.07 ± 0.14 | 1.13 ± 0.06 | 1.14 ± 0.094 |
| KATNAL1 (UniProt Q9BW62) | 0.94 ± 0.12 | 0.944 ± 0.078 | 0.918 ± 0.025 | 0.864 ± 0.041 | 0.913 ± 0.18 | 0.884 ± 0.15 | 0.925 ± 0.017 | 0.835 ± 0.028 |
| NAPG (UniProt Q99747) | 0.877 ± 0.014 | 0.878 ± 0.078 | 0.981 ± 0.057 | 0.944 ± 0.1 | 0.908 ± 0.084 | 0.952 ± 0.085 | 0.884 ± 0.077 | 0.945 ± 0.11 |
| PSMG3 (UniProt Q9BT73) | 1.03 ± 0.027 | 1.09 ± 0.083 | 1.09 ± 0.058 | 1.07 ± 0.042 | 1.08 ± 0.054 | 0.999 ± 0.087 | 1.14 ± 0.087 | 1.04 ± 0.042 |
| UHRF2 (UniProt Q96PU4) | 1.01 ± 0.024 | 1.03 ± 0.075 | 0.961 ± 0.048 | 1.03 ± 0.036 | 0.9935 ± 0.0042 | 1.01 ± 0.073 | 0.979 ± 0.061 | 0.968 ± 0.064 |
| MRPL32 (UniProt Q9BYC8) | 1.03 ± 0.11 | 1.04 ± 0.092 | 1.27 ± 0.23 | 1.4 ± 0.19 | 1.45 ± 0.32 | 1.35 ± 0.24 | 1.37 ± 0.26 | 1.42 ± 0.39 |
| RANBP9 (UniProt Q96S59) | 1.04 ± 0.048 | 1.08 ± 0.11 | 1.09 ± 0.11 | 1.1 ± 0.15 | 1.13 ± 0.16 | 1.11 ± 0.2 | 1.1 ± 0.19 | 1.05 ± 0.18 |
| GFM1 (UniProt Q96RP9) | 1.03 ± 0.011 | 1.022 ± 0.009 | 0.969 ± 0.018 | 0.946 ± 0.027 | 0.951 ± 0.053 | 0.929 ± 0.051 | 0.931 ± 0.04 | 0.906 ± 0.059 |
| OSBPL11 (UniProt Q9BXB4) | 1.03 ± 0.071 | 1.09 ± 0.014 | 1.057 ± 0.0077 | 1.04 ± 0.048 | 0.992 ± 0.033 | 1.06 ± 0.0075 | 1.03 ± 0.031 | 0.988 ± 0.018 |
| MRPS26 (UniProt Q9BYN8) | 1.07 ± 0.13 | 1.11 ± 0.11 | 1.31 ± 0.29 | 1.44 ± 0.33 | 1.42 ± 0.45 | 1.33 ± 0.3 | 1.22 ± 0.3 | 1.33 ± 0.42 |
| ACBD6 (UniProt Q9BR61) | 0.943 ± 0.063 | 0.911 ± 0.059 | 0.955 ± 0.053 | 0.952 ± 0.075 | 0.932 ± 0.11 | 0.935 ± 0.092 | 0.9 ± 0.08 | 0.949 ± 0.064 |
| UniProt Q96PE3 and related entries | 1.06 ± 0.021 | 1.07 ± 0.079 | 0.945 ± 0.015 | 0.953 ± 0.048 | 0.948 ± 0.049 | 0.939 ± 0.04 | 0.907 ± 0.054 | 0.886 ± 0.081 |

Single records (already shown).
UniProt Q99447 and related entries is entered as NP40-soluble protein abundance (concentration: 0.1mM): 0.998 ± 0.022; NP40-soluble protein abundance (concentration: 0.5mM): 1 ± 0.017; NP40-soluble protein abundance (concentration: 1mM): 0.954 ± 0.045; NP40-soluble protein abundance (concentration: 2mM): 0.939 ± 0.02; NP40-soluble protein abundance (concentration: 4mM): 0.917 ± 0.047; NP40-soluble protein abundance (concentration: 6mM): 0.909 ± 0.029; NP40-soluble protein abundance (concentration: 8mM): 0.899 ± 0.057; NP40-soluble protein abundance (concentration: 10mM): 0.857 ± 0.082
UniProt Q96MG7 is entered as NP40-soluble protein abundance (concentration: 0.1mM): 0.98 ± 0.11; NP40-soluble protein abundance (concentration: 0.5mM): 0.958 ± 0.048; NP40-soluble protein abundance (concentration: 1mM): 1.12 ± 0.089; NP40-soluble protein abundance (concentration: 2mM): 1.13 ± 0.053; NP40-soluble protein abundance (concentration: 4mM): 1.11 ± 0.12; NP40-soluble protein abundance (concentration: 6mM): 1.1 ± 0.05; NP40-soluble protein abundance (concentration: 8mM): 1.08 ± 0.13; NP40-soluble protein abundance (concentration: 10mM): 1.17 ± 0.21
